Measurements reported in PubChem BioAssay AID1224828 (NIAID, 2016)
Shown is one part, drawn at random, of about 17,000 reagents. Of all reagents, 762 (4.5%) were called active. 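Active calls include both raised and lowered p65 entry, mostly lowered; wells with fewer than 50 cells lack a z-score.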 Raw values are not corrected between plates.

- Assay: 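Knock-downs that increase or decrease LPS-induced p65 nuclear translocation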 (primary screen)
- System: mouse RAW264.7 G9 macrophage reporter cells (GFP-p65, Tnf promoter-mCherry)
- Reagents: siRNA pool against mouse genes, 100 nM
- Time to read-out: 2 days siRNA transfection, then 40 min LPS before fixation
- Challenge: LPS (Salmonella minnesota R595) at 10 ng/ml
- Measurement: 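Microscopy ratio of nuclear to perinuclear-ring GFP-p65 signal, scaled to the plate median; gene score is the average of two replicate robust z-scores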
- Direction: p65 translocation robust z-score: higher = more nuclear NF-kappaB p65 after LPS than the plate median; nuclear/cytoplasmic p65 ratio: higher = more nuclear NF-kappaB p65
- Hit rule: 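Active if robust z is above 3.3 (negative regulators) or below -1.56, the Tlr4 control median (positive regulators); activity score 50 or more; control wells not called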
- Calls: active = hit (p65 shift raised or lowered); inactive = no clear change

target gene	p65 translocation robust z-score	nuclear/cytoplasmic p65 ratio, rep 1	nuclear/cytoplasmic p65 ratio, rep 2	low cell count flag	activity call
Usp15	-0.16	1.58	1.4	enough cells to score	inactive
Arhgef10l	-1.21	1.1	1.12	enough cells to score	inactive
Rapgef2	-0.3	1.49	1.15	enough cells to score	inactive
Brinp3	1.01	1.82	1.91	enough cells to score	inactive
Bach1	-0.07	1.62	1.59	enough cells to score	inactive
Ahdc1	1.01	1.64	2.04	enough cells to score	inactive
Slc6a20a	0.4	1.47	1.29	enough cells to score	inactive
Dhrs3	-0.61	1.52	1.42	enough cells to score	inactive
Mau2		1.33	1.67	fewer than 50 cells per well; well left out of scoring	inactive
Ciao3	-0.37	1.72	1.54	enough cells to score	inactive
Ppp2r1b	-0.78	1.49	1.5	enough cells to score	inactive
Or5af2	-0.41	1.51	1.41	enough cells to score	inactive
Plekho1	0.66	1.48	1.56	enough cells to score	inactive
Cbx7	-1.61	1.28	1.58	enough cells to score	active
Ccdc77	-0.74	1.3	1.25	enough cells to score	inactive
Ska3	0.38	1.36	1.4	enough cells to score	inactive
D630004N19Rik		1.49	2.4	fewer than 50 cells per well; well left out of scoring	inactive
Pex14	0.36	1.49	1.47	enough cells to score	inactive
Nckipsd		1.33	1.28	fewer than 50 cells per well; well left out of scoring	inactive
Cyp3a16	-0.09	1.66	1.66	enough cells to score	inactive
Tex9	1.61	1.67	1.29	enough cells to score	inactive
Or5p54		1.48	1.34	fewer than 50 cells per well; well left out of scoring	inactive
Tspyl2	1.62	1.7	1.56	enough cells to score	inactive
Ghr	1.52	1.62	1.58	enough cells to score	inactive
Rnf19a	0.58	1.49	1.29	enough cells to score	inactive
Or5b120	0.68	1.75	1.48	enough cells to score	inactive
Aatk	1.35	1.53	1.74	enough cells to score	inactive
Dok5	1.35	1.68	1.54	enough cells to score	inactive
Prss37	-0.2	1.38	1.38	enough cells to score	inactive
Far2	0.13	1.78	1.63	enough cells to score	inactive
Fyn	0.79	1.82	1.48	enough cells to score	inactive
Bche	-0.08	1.53	1.67	enough cells to score	inactive
Rpl4		1.33	1.07	fewer than 50 cells per well; well left out of scoring	inactive
Acaa1a	-0.32	1.52	1.61	enough cells to score	inactive
Ghitm	-0.1	1.47	1.55	enough cells to score	inactive
Or7e170		1.38	1.4	fewer than 50 cells per well; well left out of scoring	inactive
Cnnm1	0.64	1.82	1.46	enough cells to score	inactive
Rpgrip1l	-0.66	1.21	1.43	enough cells to score	inactive
Aldh1a7	0.5	1.53	1.92	enough cells to score	inactive
Wdr13	0.36	1.6	1.62	enough cells to score	inactive
Trmt2a	1.28	1.76	1.58	enough cells to score	inactive
Prkdc	0.14	1.71	1.57	enough cells to score	inactive
Kir3dl1	-0.54	1.4	1.27	enough cells to score	inactive
Spef1	0.74	1.51	1.94	enough cells to score	inactive
Or8b1	-0.8	1.22	1.27	enough cells to score	inactive
Fzd2	-0.29	1.48	1.53	enough cells to score	inactive
Nckap5	0.41	1.63	1.86	enough cells to score	inactive
Rxrb	-1.08	1.33	1.4	enough cells to score	inactive
Or4c29		1.49	1.55	fewer than 50 cells per well; well left out of scoring	inactive
Zfp157	0.12	1.4	1.5	enough cells to score	inactive
Inhbb	0.02	1.45	1.41	enough cells to score	inactive
Pfkp	-0.94	1.58	1.23	enough cells to score	inactive
Or10g9		1.37	1.28	fewer than 50 cells per well; well left out of scoring	inactive
Bbs1	2.07	1.94	1.91	enough cells to score	inactive
Ipo5	1.12	1.58	1.57	enough cells to score	inactive
Tbcb	-0.95	1.5	1.57	enough cells to score	inactive
Tmem171		1.48	1.65	fewer than 50 cells per well; well left out of scoring	inactive
Tmem69	-0.73	1.2	1.51	enough cells to score	inactive
Gba1	1.3	1.58	1.56	enough cells to score	inactive
Klra20	-0.43	1.44	1.32	enough cells to score	inactive
Dnmbp	1.42	1.74	1.47	enough cells to score	inactive
Irak1	2.04	2.05	1.6	enough cells to score	inactive
Isl2	-0.93	1.42	1.2	enough cells to score	inactive
Ppargc1b	0.46	1.62	1.41	enough cells to score	inactive
Or14j7	0.02	1.62	1.42	enough cells to score	inactive
Psmc1		1.29	1.06	fewer than 50 cells per well; well left out of scoring	inactive
Zfp759	-1.26	1.48	1.53	enough cells to score	inactive
Relb		1.5	1.61	fewer than 50 cells per well; well left out of scoring	inactive
F9	0.73	1.44	1.45	enough cells to score	inactive
Troap	0.85	1.61	1.64	enough cells to score	inactive
Xrcc1	-0.54	1.38	1.48	enough cells to score	inactive
Cnga1	0.65	1.59	1.46	enough cells to score	inactive
Mrps9	-0.91	1.65	1.44	enough cells to score	inactive
Pcdhga4	0.33	1.46	1.3	enough cells to score	inactive
Or52n2	-0.15	1.39	1.25	enough cells to score	inactive
